Some of the results follow.

Common to all, as to assay: glycan array binding signal (z-score within array); higher = stronger binding
What all share (details): glycan notation: IUPAC condensed, linker removed

Test [1] deals with Gal(b1-4)GlcNAc(b1-6)Gal(b1-4)GlcNAc. Put shortly:
(§1)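 Glycan array data were curated from 3228 arrays in the Consortium for Functional Glycomics database and kept only where the protein sequence was available. Glycan names were converted to IUPAC-condensed notation, and columns mapping to the same glycan were averaged. The binding signal is a within-array Z-score, averaged across arrays of the same protein sequence at different concentrations or buffers and across linkers. Negative Z-scores can be read as non-binding.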

For test [2], the target named is Gal(b1-4)GlcNAc(b1-6)GalNAc. The method, boiled down: as §1
In test [3] the target is Gal(b1-4)GlcNAc(b1-6)[Gal(b1-3)]GalNAc. The method, boiled down:
as §1

The target in test [4] is Gal(b1-4)GlcNAc(b1-6)[Gal(b1-4)GlcNAc(b1-3)]GalNAc. The method, boiled down: as §1
The next test addresses Gal(b1-4)GlcNAc6P. Put shortly:
as §1

A further test deals with Gal(b1-6)Gal. The method, boiled down:
as §1

The target in the next test is Gal3S(b1-3)GalNAc. The method, boiled down: as §1
A further test concerns the target Gal3S(b1-3)GlcNAc. Put shortly:
as §1

Test [5] has as its target Gal3S(b1-3)[Fuc(a1-4)]GlcNAc. Put shortly:
as §1

A further test deals with Gal3S(b1-4)Glc. The method, boiled down:
as §1

Another test addresses Gal3S(b1-4)Glc6S. The method, boiled down: as §1
The next test has as its target Gal3S(b1-4)GlcNAc. Put shortly:
as §1

For test [6], the target named is Gal3S(b1-4)[Fuc(a1-3)]Glc6S. Put shortly:
as §1

For test [7], the target named is Gal3S(b1-4)[Fuc(a1-3)]GlcNAc. The method, boiled down:
as §1

Test [8] has as its target Gal3S(b1-4)[Fuc(a1-3)]GlcNAc6S. Put shortly: as §1
The next test concerns the target Gal3S4S(b1-4)GlcNAc. Put shortly: as §1
The target in another test is Gal3S6S(b1-4)GlcNAc. Put shortly: as §1
A further test addresses Gal3S6S(b1-4)GlcNAc6S. Put shortly:
as §1

In another test the target is Gal4S(b1-4)GlcNAc. Put shortly: as §1
The target of the next test is Gal4S6S(b1-4)GlcNAc. Put shortly:
as §1

A further test concerns the target Gal6P(b1-4)GlcNAc. The method, boiled down:
as §1

For another test, the target named is Gal6S(b1-3)GlcNAc. The method, boiled down: as §1
In another test the target is Gal6S(b1-3)GlcNAc6S. Put shortly:
as §1

B1: HA-61200 (Pseudomonas aeruginosa), Q02SP8_PSEAB (protein)
chain: MNKCYALVWNVSQGCWNVVSEGSRRRGKPAGAKAAIASVLALLGATALAPAYALPSGGTVVGGSANGEIHLSGGNSLSVNQKVDKLIANWDSFSVAAGERVIFNQPSSSSIALNRVIGTKASDIQGRIDANGQVFLVNPNGVLFGRGAQVNVGGLVASTLDITDAEFNGNSSRYRFTGPSTNGVLNHGGAITAAEGGSIALLGAQVDNRGTVLAQMGGVGLGAGSDLTLNFDGNKLLDIRVDAGVANALASNGGLLKADGGRVLMAARTANALLNTVVNSQGAIEARSLRGKNGRIVLDG
In the case of B1, the “glycan array binding signal (z-score)” value in test [1] was -0.569; in [2], 0.119; in [3], 0.041; in [4], 0.009; with Gal(b1-4)GlcNAc6P, -0.567; in the test with Gal(b1-6)Gal it was 0.023. Moreover, the “glycan array binding signal (z-score)” value in the test with Gal3S(b1-3)GalNAc was 1.45; with Gal3S(b1-3)GlcNAc it was -0.794; in test [5] it was 0.232; with Gal3S(b1-4)Glc, 0.822; with Gal3S(b1-4)Glc6S, -0.263; in the test with Gal3S(b1-4)GlcNAc it was -0.009. The “glycan array binding signal (z-score)” value was 1.15 in [6]; 0.034 in test [7]; -0.081 in test [8]; -0.879 with Gal3S4S(b1-4)GlcNAc; 2.33 in the test with Gal3S6S(b1-4)GlcNAc; 0.707 with Gal3S6S(b1-4)GlcNAc6S. Moreover, the “glycan array binding signal (z-score)” value is -0.564 with Gal4S(b1-4)GlcNAc; 0.034 with Gal4S6S(b1-4)GlcNAc; -0.318 in the test with Gal6P(b1-4)GlcNAc; -0.566 with Gal6S(b1-3)GlcNAc; -0.233 with Gal6S(b1-3)GlcNAc6S.
